Percent effect of library compounds

Protein sequences, listed by entry. Tags and fused reporters are not part of them. Residues count along the entry.
UniProt A4I591, 1-473: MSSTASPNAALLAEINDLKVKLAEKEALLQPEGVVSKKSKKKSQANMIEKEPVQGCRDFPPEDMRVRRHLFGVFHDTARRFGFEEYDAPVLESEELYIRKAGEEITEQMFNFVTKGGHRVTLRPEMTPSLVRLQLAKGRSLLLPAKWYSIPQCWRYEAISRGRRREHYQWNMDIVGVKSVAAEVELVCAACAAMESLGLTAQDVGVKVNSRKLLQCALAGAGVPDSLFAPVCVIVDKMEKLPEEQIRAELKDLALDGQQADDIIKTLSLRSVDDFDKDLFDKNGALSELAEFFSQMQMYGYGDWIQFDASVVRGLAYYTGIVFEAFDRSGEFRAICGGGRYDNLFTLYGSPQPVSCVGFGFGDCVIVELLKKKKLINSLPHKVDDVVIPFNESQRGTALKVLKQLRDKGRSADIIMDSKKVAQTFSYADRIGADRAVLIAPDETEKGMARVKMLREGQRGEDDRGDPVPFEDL

Toxoplasma: 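Assay of Toxoplasma gondii numbers, read through their beta-galactosidase reporter with a colour substrate. Compounds at 10 µM. The record gives no direction; the compounds picked for IC50 retests had high values, so higher reads as fewer parasites. About 67,000 compounds were tested under these conditions; 0.38% (about 260) showed 50% or more at least once.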
LiHisRS: 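Histidine-tRNA ligase, Leishmania infantum (UniProt A4I591). Enzyme assay of histidyl-tRNA synthetase; the read-out is not stated. Compounds at 30 µM. Higher reads as stronger inhibition (inferred: compounds with an IC50 in retests scored well above the rest). The assay is labelled LdHisRS but filed under L. infantum. About 69,000 compounds were tested under these conditions; 0.6% (about 410) showed 50% or more at least once.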

The filed quantity is “Percent Effect” (%).
The record does not define 0% and 100%; most values in the screen are far below 50% and negative numbers occur (in some assays of this library far below -100).
This is an unselected part of the compounds tested.
A dash means the value is not listed here; it may have been measured.

structure,Toxoplasma,LiHisRS
CC(C)OC[C@H]1CCC[C@]12CN(S(=O)(=O)C1CC1)CCO2,1.862%,15.38%
CC(NC(=O)CCc1cccs1)c1nnc2n1CCC2 (centres unmarked),13.79%,18.46%
O=C(O)C(F)(F)F.[H][C@]12CCC[C@@H](CNc3ncccn3)[C@@]1([H])CN(Cc1cnn(C)c1)C2,20.51%,-
CN1CC2(CCN(S(=O)(=O)C3CC3)CC2)c2ccccc21,-,39.66%
Cc1cc(C)n(CC2CCCN2CCCS(C)(=O)=O)n1 (centres unmarked),55.61%,14.68%
C[C@@H](NC(=O)c1cccnc1)c1onc(-c2ccccc2)c1C(=O)O,8.156%,24.32%
Cc1nc(C)c2c(n1)CCN(C(=O)CN(C)C)CC2,13.73%,15.79%
CNC(=O)NCC(CO)Cc1ccccc1OC(F)(F)F (centres unmarked),3.364%,5.495%
Cn1cc(CCC(=O)N2C[C@H]3CC[C@@H]2CN(Cc2cccnc2)C3)cn1,-,16.05%
N#CC1(c2ccccc2)CCN(C(=O)C2CCCN(CC(N)=O)C2)CC1 (centres unmarked),-3.995%,24.18%
Cc1[nH]ccc1C(=O)NCc1ncoc1C,4.223%,6.25%
Cn1cnnc1C1CCCN(c2nc3ccccc3o2)C1 (centres unmarked),-38.35%,8.889%
CC(Cc1cn(CCc2n[nH]c(=O)[nH]2)nn1)c1ccccc1 (centres unmarked),-19.63%,13.99%
CC(=O)N1CC(C(=O)Nc2cccc(OC(F)F)c2)C1,5.277%,13.91%
CCC[C@@H]1CN(Cc2nnc(-c3cccc(F)c3)o2)C[C@H]1NC(C)=O,-12.4%,11.76%
CCCC(=O)N1CCCC(Cn2cc(-c3ccc(F)cc3)nn2)C1 (centres unmarked),3.352%,16.33%
Cn1c(-c2ccccc2Cl)nc2cc(C(=O)NC(CO)CO)cnc21,-5.971%,11.48%
N#Cc1ccc(N2CCC3(CCC(=O)N3Cc3ccncc3)CC2)nc1,-,15.84%
Cc1ccc(O)c(CNC2CCc3nc(C)nn3C2)n1 (centres unmarked),4.391%,13.48%
CCC(CC)N(C)S(=O)(=O)c1ccc(CCNC(C)=O)s1,7.286%,12.12%
CCN(CC1CN(Cc2nc(C3CC3)no2)CCO1)c1cccnn1 (centres unmarked),19.42%,24.11%
CN(CCc1ccncc1)C(=O)C1CSCN1C(=O)C1CCCC1 (centres unmarked),4.661%,3.175%
NC(=O)C1CCN(C(=O)c2ccc(Sc3ccccn3)cc2)CC1,14.98%,18.68%
COCCO[C@H]1CCN(c2cc(OC)ncn2)[C@H]1Cc1cccnc1.O=C(O)C(F)(F)F,-3.493%,-
Cc1cnn(C2CCCN(C(=O)c3cccc4c3OCO4)C2)c1 (centres unmarked),-29.2%,15.79%
CC(c1ccc(F)c(F)c1)N(C)CCS(=O)(=O)CCC(N)=O (centres unmarked),-0.5671%,0%
CCc1noc(-c2ccc(SCC(=O)O)nc2)n1,-9.189%,11.86%
CC(=O)N1CCCC1c1cccc(C)c1C (centres unmarked),7.613%,0%
Cc1ccc(CN(Cc2nc3c(cnn3C)c(=O)[nH]2)C2CC2)o1,16.05%,13.91%
CCOCCCNC(=O)C1CCC(=O)N(CCc2ccc(Cl)cc2)C1 (centres unmarked),7.963%,3.704%
O=C(COc1coc(CN2CCCC2)cc1=O)Nc1ccc(Cl)c(Cl)c1,-25.15%,18.42%
c1ccc(CO[C@@H]2CO[C@@]3(CCN(Cc4ccccn4)C3)C2)nc1,-,-9.709%
Cc1cccc(CN2CC[C@@H]3[C@@H]2CCN3C(=O)Cc2cccs2)n1,-,21.78%
Cc1ccc(C(=O)Nc2cn[nH]c2)cn1,-5.363%,8.8%
O=C(O)C(F)(F)F.O=C(O)C(F)(F)F.[H][C@]12CCN(C(=O)CC(C)C)CC[C@@]1([H])S(=O)(=O)CCN2Cc1cccnc1,12.11%,-
COc1cccc(COCC(=O)N2CCN(CC(C)(C)O)CC2)c1,-21.31%,-4%
Cc1nc2sccn2c1CN(CCCN(C)C)Cc1ccco1,-,15.49%
NC(=O)CN1C(=O)CO[C@H]2CN(Cc3ccc(Cl)cc3)C[C@H]21,-,10.81%
CN(C)c1ccc(C(=O)N2Cc3cnc(C(C)(C)C)nc3C2)cc1,0.5686%,22.58%
COc1ccc(OC)c(-c2csc(-c3cccc(C(=O)O)c3)n2)c1,-2.373%,14%
Cc1noc(CCNC(=O)c2ccc(Br)c(S(=O)(=O)N(C)C)c2)n1,7.134%,5.882%
Cc1noc(C(C)C)c1C(=O)NCCCN1CCC(C)CC1,11.76%,11.54%
CN(C)c1cccc(C(=O)Nc2ccn(CCc3ccncc3)n2)c1,13.79%,21.24%
CSCCC(=O)N1CCC(c2nnc(CN(C)CCO)n2C)CC1,6.233%,5.208%
Cn1cnc2c1CCN(CCOc1ccc3c(c1)CCC(=O)N3)C2,9.273%,16.44%
CC(C)(C)c1csc(CN2CCN(S(=O)(=O)c3cccnc3)CC2)n1,15.35%,-5.128%
O=C(N[C@@H]1CCNC[C@H]1O)c1ccc(F)c(Cl)c1,1.039%,19.23%
Cc1ccc2c(c1)C1(CCNCC1)CC2OCC1CC1 (centres unmarked),-4.966%,0.885%
Cc1cnnn1Cc1nnn2c1CN(Cc1ccccn1)CCC2.O=C(O)C(F)(F)F,-17.89%,-
CS(=O)(=O)NC1CCc2[nH]c(=O)ccc2C1 (centres unmarked),0.9442%,13.46%
COc1ncccc1NC(=O)C1CC(=O)N(Cc2ccccn2)C1 (centres unmarked),-0.4525%,22.86%

The last 3 entries again:

structure,Toxoplasma,LiHisRS
Cc1cnnn1Cc1nnn2c1CN(Cc1ccccn1)CCC2.O=C(O)C(F)(F)F,-17.89%,-
CS(=O)(=O)NC1CCc2[nH]c(=O)ccc2C1 (centres unmarked),0.9442%,13.46%
COc1ncccc1NC(=O)C1CC(=O)N(Cc2ccccn2)C1 (centres unmarked),-0.4525%,22.86%

Measurements from “University of Dundee, Small-Polar-MMV Screening Library” (2021), ChEMBL document CHEMBL3988442.